Assay results taken from publication PMC11161732.
Results are given in words; binding and its absence hold for the method and conditions named. In cells and extracts the contact can be indirect. Some results given as binding are weak or reduced against the parent protein; the word gives no strength. For part of these data: Where a sequence is shown, tags or fusion partners need not be part of it.

T1: GST-RIP1(27–439) (UniProt P48552)
T1 sequence: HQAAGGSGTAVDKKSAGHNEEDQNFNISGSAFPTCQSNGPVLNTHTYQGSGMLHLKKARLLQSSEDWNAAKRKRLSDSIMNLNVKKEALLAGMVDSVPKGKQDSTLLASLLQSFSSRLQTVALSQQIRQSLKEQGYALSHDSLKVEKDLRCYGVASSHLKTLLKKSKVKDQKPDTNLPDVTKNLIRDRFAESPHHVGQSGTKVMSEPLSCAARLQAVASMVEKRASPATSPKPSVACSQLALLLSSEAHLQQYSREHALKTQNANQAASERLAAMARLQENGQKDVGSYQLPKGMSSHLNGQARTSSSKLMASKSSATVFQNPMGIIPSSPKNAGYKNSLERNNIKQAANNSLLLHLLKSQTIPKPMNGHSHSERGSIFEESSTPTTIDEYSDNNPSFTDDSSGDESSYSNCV

T2: RIP140 (receptor-interacting protein of 140 kDa), endogenous (human (endogenous in SW620 and HT29)) (UniProt P48552)
T2 sequence: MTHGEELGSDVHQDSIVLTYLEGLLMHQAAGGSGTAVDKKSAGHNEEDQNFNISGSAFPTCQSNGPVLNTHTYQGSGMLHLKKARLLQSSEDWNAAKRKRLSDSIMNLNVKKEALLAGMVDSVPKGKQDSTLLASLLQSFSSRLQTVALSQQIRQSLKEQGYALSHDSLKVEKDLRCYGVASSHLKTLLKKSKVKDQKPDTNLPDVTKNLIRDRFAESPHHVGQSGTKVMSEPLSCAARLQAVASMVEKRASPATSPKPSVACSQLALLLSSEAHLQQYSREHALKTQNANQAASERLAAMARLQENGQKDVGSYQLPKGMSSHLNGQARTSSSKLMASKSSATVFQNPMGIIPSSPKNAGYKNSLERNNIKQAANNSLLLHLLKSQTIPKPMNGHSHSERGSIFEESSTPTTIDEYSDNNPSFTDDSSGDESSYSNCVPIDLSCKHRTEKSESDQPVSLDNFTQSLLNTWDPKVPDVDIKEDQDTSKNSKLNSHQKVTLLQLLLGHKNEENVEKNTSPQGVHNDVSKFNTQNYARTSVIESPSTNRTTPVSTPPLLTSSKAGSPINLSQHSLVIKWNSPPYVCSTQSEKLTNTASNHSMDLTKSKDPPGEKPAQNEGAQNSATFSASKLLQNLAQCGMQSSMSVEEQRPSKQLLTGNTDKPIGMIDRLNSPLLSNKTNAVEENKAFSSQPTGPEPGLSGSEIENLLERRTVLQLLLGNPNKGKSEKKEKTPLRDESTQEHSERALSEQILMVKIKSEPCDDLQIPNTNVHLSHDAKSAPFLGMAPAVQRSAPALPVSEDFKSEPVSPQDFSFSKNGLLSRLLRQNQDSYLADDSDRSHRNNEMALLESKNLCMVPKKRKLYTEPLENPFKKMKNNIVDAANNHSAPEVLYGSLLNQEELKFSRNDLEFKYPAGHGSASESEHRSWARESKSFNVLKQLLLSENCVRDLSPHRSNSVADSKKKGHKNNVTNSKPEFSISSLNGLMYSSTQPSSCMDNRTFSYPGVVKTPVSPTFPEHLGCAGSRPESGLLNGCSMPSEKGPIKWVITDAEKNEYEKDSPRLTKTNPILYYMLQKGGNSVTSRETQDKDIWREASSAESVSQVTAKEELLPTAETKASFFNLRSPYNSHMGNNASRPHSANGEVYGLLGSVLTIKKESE

B1: in vitro translated HES1 protein (protein, UniProt Q14469 1-280)
chain: MPADIMEKNSSSPVAATPASVNTTPDKPKTASEHRKSSKPIMEKRRRARINESLSQLKTLILDALKKDSSRHSKLEKADILEMTVKHLRNLQRAQMTAALSTDPSVLGKYRAGFSECMNEVTRFLSTCEGVNTEVRTRLLGHLANCMTQINAMTYPGQPHPALQAPPPPPPGPGGPQHAPFAPPPPLVPIPGGAAPPPGGAPCKLGSQAGEAAKVFGGFQVVPAPDGQFAFLIPNGAFAHSGPVIPVYTSNSGTSVGPNAVSPSSGPSLTADSMWRPWRN
B2: HES1 (hes family bHLH transcription factor 1), endogenous (protein, UniProt Q14469 1-280)
chain: B1 chain

Experiments:
GST-RIP1(27–439) = biological target: T1, GST-RIP1(27–439); assay: pull-down; purified GST fusion proteins on glutathione sepharose 4B beads incubated with cell-free-synthesized unlabeled protein in NETN buffer (20 mM Tris pH 8, 100 mM NaCl, 1 mM EDTA, 0.5% Nonidet-P40, 1 mM DTT) overnight at 4 °C; 4 washes; SDS/PAGE; only the target purified
[1] = biological target: T2, RIP140 (receptor-interacting protein of 140 kDa), endogenous (human (endogenous in SW620 and HT29)); assay: proximity ligation; Duolink PLA in fixed, permeabilised SW620 cells with primary antibodies against RIP140 (sc-9459) and HES1 (#11988); endogenous proteins
[2] = biological target: T2, RIP140 (receptor-interacting protein of 140 kDa), endogenous (human (endogenous in SW620 and HT29)); assay: proximity ligation; Duolink PLA in fixed, permeabilised HT29 cells with primary antibodies against RIP140 (sc-9459) and HES1 (#11988); endogenous proteins

Binder	binding (GST-RIP1(27–439))	binding [1]	binding [2]
B1	binds	–	–
B2	–	binds	binds
